This is an account of results in paper doi:10.1101/2021.12.11.472226.

The target in this assay is T1, IQ67 DOMAIN 9 (IQD9) fused to GFP (Arabidopsis thaliana) (UniProt Q0WNP8).
T1 sequence: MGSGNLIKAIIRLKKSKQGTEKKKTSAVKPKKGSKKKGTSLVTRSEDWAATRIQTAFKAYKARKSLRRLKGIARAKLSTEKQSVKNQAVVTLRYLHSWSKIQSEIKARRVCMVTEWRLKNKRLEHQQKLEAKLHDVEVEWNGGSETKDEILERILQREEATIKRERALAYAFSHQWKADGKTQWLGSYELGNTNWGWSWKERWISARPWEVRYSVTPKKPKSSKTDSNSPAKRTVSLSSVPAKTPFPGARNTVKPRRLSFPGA
Kind of assay: co-IP.

Results are given in words; binding and its absence hold for the method and conditions named. Binding seen in cells or lysates may run through a third protein. Some results given as binding are weak or reduced against the parent protein; the word gives no strength. Tags and fused reporters may be left off the sequences shown.

B1: KINESIN LIGHT CHAIN-RELATED 1 (KLCR1) tagged with RFP (protein, UniProt O81629 1-609)
chain: MPAMPGLVSVKTPSDTPPLRVAVPDTQPLSNPPRTPMKKTPSSTPSRSKPSPNRSTGKKDSPTVSSSTAAVIDVDDPSLDNPDLGPFLLKLARDAIASGEGPNKALDYAIRATKSFERCCAAVAPPIPGGSDGGPVLDLAMSLHVLAAIYCSLGRFDEAVPPLERAIQVPDPTRGPDHSLAAFSGHMQLGDTLSMLGQIDRSIACYEEGLKIQIQTLGDTDPRVGETCRYLAEAYVQAMQFNKAEELCKKTLEIHRAHSEPASLEEAADRRLMAIICEAKGDYENALEHLVLASMAMIASGQESEVASIDVSIGNIYMSLCRFDEAVFSYQKALTVFKASKGETHPTVASVFVRLAELYHRTGKLRESKSYCENALRIYNKPVPGTTVEEIAGGLTEISAIYESVDEPEEALKLLQKSMKLLEDKPGQQSAIAGLEARMGVMYYTVGRYEDARNAFESAVTKLRAAGEKSAFFGVVLNQMGLACVQLFKIDEAGELFEEARGILEQERGPCDQDTLGVYSNLAATYDAMGRIEDAIEILEQVLKLREEKLGTANPDFEDEKKRLAELLKEAGRSRNYKAKSLQNLIDPNARPPKKESSAKKWPSLGFKF
Take B1: the binding result is reported as “binds”.
